Results published in doi:10.1101/717769.
No constants are given. Whether binding was seen depends on the method and setting. Binding seen in cells or lysates may run through a third protein. Some binding calls cover weakened binding; strength is not graded here.

Chains of the proteins cited; added tags and fusions are not shown.
UniProt P11171: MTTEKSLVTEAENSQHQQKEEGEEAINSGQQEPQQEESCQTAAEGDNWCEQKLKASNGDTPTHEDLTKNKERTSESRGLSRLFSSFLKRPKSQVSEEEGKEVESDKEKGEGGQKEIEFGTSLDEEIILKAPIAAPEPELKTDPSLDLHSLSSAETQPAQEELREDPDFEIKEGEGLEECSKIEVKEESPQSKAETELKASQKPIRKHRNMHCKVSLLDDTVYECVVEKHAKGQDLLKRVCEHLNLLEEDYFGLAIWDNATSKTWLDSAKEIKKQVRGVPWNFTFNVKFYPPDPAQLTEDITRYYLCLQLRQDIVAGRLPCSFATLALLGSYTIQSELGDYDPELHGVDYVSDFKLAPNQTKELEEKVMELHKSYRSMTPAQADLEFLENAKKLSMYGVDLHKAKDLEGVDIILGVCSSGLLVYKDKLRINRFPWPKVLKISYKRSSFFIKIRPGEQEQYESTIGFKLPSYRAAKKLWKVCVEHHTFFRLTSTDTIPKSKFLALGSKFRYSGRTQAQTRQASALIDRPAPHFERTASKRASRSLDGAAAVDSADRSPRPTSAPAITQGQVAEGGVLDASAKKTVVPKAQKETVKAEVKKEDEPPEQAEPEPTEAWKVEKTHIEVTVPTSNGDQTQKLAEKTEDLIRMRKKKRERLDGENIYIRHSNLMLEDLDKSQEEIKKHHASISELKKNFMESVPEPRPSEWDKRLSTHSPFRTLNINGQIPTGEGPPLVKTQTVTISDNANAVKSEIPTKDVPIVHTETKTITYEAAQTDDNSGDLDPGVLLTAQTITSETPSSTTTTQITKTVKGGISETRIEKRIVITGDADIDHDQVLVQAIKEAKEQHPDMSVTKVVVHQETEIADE
UniProt P15311: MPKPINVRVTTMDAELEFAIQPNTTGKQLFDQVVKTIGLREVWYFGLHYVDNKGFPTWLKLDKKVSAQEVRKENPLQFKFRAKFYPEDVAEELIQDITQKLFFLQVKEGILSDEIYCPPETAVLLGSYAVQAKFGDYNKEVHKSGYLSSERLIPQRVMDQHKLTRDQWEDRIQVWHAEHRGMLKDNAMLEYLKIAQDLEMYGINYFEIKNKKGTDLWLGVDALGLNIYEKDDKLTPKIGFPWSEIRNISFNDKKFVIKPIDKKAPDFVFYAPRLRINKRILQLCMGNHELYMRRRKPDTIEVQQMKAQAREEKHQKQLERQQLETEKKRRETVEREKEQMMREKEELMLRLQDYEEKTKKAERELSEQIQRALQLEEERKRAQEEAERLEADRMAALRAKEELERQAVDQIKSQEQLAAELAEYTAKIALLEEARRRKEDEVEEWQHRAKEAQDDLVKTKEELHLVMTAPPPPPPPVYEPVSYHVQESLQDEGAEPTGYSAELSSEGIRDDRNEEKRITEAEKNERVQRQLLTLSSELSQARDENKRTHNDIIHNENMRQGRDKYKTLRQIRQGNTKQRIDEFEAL
UniProt P35241: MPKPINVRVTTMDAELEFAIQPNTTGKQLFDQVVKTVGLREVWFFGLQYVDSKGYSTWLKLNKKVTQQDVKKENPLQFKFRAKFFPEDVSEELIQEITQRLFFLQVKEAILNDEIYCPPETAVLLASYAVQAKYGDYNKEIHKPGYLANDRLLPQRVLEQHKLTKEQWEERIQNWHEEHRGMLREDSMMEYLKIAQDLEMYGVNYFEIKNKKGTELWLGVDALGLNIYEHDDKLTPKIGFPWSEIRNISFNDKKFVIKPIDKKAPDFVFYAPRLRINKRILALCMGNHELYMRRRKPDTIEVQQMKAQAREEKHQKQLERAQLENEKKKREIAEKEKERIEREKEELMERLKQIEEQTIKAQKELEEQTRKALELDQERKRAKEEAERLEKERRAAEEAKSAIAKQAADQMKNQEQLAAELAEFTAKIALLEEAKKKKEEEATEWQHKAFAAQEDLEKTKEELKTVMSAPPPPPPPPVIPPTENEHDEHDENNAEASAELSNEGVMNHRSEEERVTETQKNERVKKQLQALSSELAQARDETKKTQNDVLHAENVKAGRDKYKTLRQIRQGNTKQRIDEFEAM
UniProt P26038: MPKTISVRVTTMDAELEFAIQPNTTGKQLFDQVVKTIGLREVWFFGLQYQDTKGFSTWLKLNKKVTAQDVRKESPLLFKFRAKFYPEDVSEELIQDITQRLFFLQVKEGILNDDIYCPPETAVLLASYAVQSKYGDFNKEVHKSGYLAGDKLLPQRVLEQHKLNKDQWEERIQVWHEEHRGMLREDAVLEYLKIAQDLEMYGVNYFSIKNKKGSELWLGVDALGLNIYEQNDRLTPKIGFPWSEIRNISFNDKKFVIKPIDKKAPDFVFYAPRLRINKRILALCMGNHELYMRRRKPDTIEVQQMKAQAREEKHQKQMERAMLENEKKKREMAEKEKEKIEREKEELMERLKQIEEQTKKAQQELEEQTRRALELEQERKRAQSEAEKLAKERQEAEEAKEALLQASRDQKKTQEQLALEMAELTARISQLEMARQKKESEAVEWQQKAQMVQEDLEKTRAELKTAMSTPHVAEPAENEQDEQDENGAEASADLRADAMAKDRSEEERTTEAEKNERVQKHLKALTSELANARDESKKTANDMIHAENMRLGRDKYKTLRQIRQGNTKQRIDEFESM

What was measured:
Flag-Merlin = Flag-Merlin (UniProt P35240); test: co-IP
GST-Merlin (full length) = GST-Merlin (full length) (UniProt P35240); test: pull-down
[1] = target: Flag-erythrocyte membrane protein band 4.1 (EPB41) (UniProt P11171); test: co-IP
Flag-Ezrin = Flag-Ezrin (UniProt P15311); test: co-IP
Flag-Radixin = Flag-Radixin (UniProt P35241); test: co-IP
Flag-Merlin isoform 1 = Flag-Merlin isoform 1 (UniProt P35240); test: co-IP
Flag-Moesin = Flag-Moesin (UniProt P26038); test: co-IP

binding (Flag-Merlin) | binding (GST-Merlin (full length)) | binding [1] | binding (Flag-Ezrin) | binding (Flag-Radixin) | binding (Flag-Merlin isoform 1) | binding (Flag-Moesin) | Binder
binds |  |  |  |  |  |  | AMOTL1 (endogenous) (protein, UniProt Q8IY63 1-956) MWRAKLRRGTCEPAVKGSPSACYSPSSPVQVLEDSTYFSPDFQLYSGRHETSALTVEATSSIREKVVEDPLCNFHSPNFLRISEVEMRGSEDAAAGTVLQRLIQEQLRYGTPTENMNLLAIQHQATGSAGPAHPTNNFSSTENLTQEDPQMVYQSARQEPQGQEHQVDNTVMEKQVRSTQPQQNNEELPTYEEAKAQSQFFRGQQQQQQQQGAVGHGYYMAGGTSQKSRTEGRPTVNRANSGQAHKDEALKELKQGHVRSLSERIMQLSLERNGAKQHLPGSGNGKGFKVGGGPSPAQPAGKVLDPRGPPPEYPFKTKQMMSPVSKTQEHGLFYGDQHPGMLHEMVKPYPAPQPVRTDVAVLRYQPPPEYGVTSRPCQLPFPSTMQQHSPMSSQTSSASGPLHSVSLPLPLPMALGAPQPPPAASPSQQLGPDAFAIVERAQQMVEILTEENRVLHQELQGYYDNADKLHKFEKELQRISEAYESLVKSTTKRESLDKAMRNKLEGEIRRLHDFNRDLRDRLETANRQLSSREYEGHEDKAAEGHYASQNKEFLKEKEKLEMELAAVRTASEDHRRHIEILDQALSNAQARVIKLEEELREKQAYVEKVEKLQQALTQLQSACEKREQMERRLRTWLERELDALRTQQKHGNGQPANMPEYNAPALLELVREKEERILALEADMTKWEQKYLEESTIRHFAMNAAATAAAERDTTIINHSRNGSYGESSLEAHIWQEEEEVVQANRRCQDMEYTIKNLHAKIIEKDAMIKVLQQRSRKDAGKTDSSSLRPARSVPSIAAATGTHSRQTSLTSSQLAEEKKEEKTWKGSIGLLLGKEHHEHASAPLLPPPPTSALSSIASTTAASSAHAKTGSKDSSTQTDKSAELFWPSMASLPSRGRLSTTPAHSPVLKHPAAKGTAEKLENSPGHGKSPDHRGRVSSLLHKPEFPDGEMMEVLI
binds | binds | no binding | no binding | no binding | binds | no binding | TAT-SF1 (endogenous) (protein, UniProt O43719 1-755) MSGTNLDGNDEFDEQLRMQELYGDGKDGDTQTDAGGEPDSLGQQPTDTPYEWDLDKKAWFPKITEDFIATYQANYGFSNDGASSSTANVEDVHARTAEEPPQEKAPEPTDARKKGEKRKAESGWFHVEEDRNTNVYVSGLPPDITVDEFIQLMSKFGIIMRDPQTEEFKVKLYKDNQGNLKGDGLCCYLKRESVELALKLLDEDEIRGYKLHVEVAKFQLKGEYDASKKKKKCKDYKKKLSMQQKQLDWRPERRAGPSRMRHERVVIIKNMFHPMDFEDDPLVLNEIREDLRVECSKFGQIRKLLLFDRHPDGVASVSFRDPEEADYCIQTLDGRWFGGRQITAQAWDGTTDYQVEETSREREERLRGWEAFLNAPEANRGLRRSDSVSASERAGPSRARHFSEHPSTSKMNAQETATGMAFEEPIDEKKFEKTEDGGEFEEGASENNAKESSPEKEAEEGCPEKESEEGCPKRGFEGSCSQKESEEGNPVRGSEEDSPKKESKKKTLKNDCEENGLAKESEDDLNKESEEEVGPTKESEEDDSEKESDEDCSEKQSEDGSEREFEENGLEKDLDEEGSEKELHENVLDKELEENDSENSEFEDDGSEKVLDEEGSEREFDEDSDEKEEEEDTYEKVFDDESDEKEDEEYADEKGLEAADKKAEEGDADEKLFEESDDKEDEDADGKEVEDADEKLFEDDDSNEKLFDEEEDSSEKLFDDSDERGTLGGFGSVEEGPLSTGSSFILSSDDDDDDI
